Results reported in patent US7083933B1, “Methods for identification of modulators of OSGPR116 activity” (Prosidion Limited, priority 2003, dated 2006).
At least one compound was matched to its structure with a doubt left.

Experiments:
OSGPR116 [1] = target: T1, OSGPR116 (Homo sapiens, UniProt Q8TDV5); assay: Cre-SEAP assay in HEK-293-Galpha16 cells transfected with OSGPR116 or empty vector; assay type: cell-based; parameters: expressed in transfected cells; host or cells: HEK-293-Galpha16 cells stably expressing cre-SEAP, transient transfection with lipofectamine; conditions: OSGPR116 and empty vector transfected cells, 7h; FIG. 12
T1 sequence (Q8TDV5 1-335): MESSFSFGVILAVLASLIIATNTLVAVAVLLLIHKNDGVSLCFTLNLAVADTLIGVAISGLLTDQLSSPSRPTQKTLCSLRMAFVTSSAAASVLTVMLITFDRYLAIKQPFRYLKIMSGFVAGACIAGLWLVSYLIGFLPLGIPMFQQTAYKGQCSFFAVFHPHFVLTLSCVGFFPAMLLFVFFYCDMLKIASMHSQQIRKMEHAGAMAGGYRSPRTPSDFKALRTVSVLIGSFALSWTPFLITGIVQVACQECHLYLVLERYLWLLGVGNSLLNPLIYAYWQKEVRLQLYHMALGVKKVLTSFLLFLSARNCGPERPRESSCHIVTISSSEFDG
Protocol: HEK-293—Galpha16 cells stably expressing the cre-SEAP (secreted alkaline phosphatase) reporter construct, and transiently transfected with either the OSGPR116 vector or empty vector control, were grown to between ˜0.5×10^6 and 1×10^7 cells/dish and seeded at 4×10^4 cells/well on poly-D-lysine coated clear-bottom 96-well tissue culture plates. The cells were left to adhere to the plates in media for 24h at 37° C. The media was aspirated and the cells arrested by serum starvation for a further 24h in 200 ul of colorless DMEM.
After serum arrest, the starvation media was aspirated and 90 ul fresh colorless DMEM containing 0.1% BSA was added. 10 ul of 10× compound (or DMSO/H20 control) was added and the plates incubated at 37° C. for 7h. Conditioned media (12.5 ul) was then transferred to a 96 well white flat-bottom plate. Next, 37.5 μl of 1× Tropix Dilution Buffer was added to the transferred culture media. 50 μl of Tropix Assay Buffer was also added. The plate was then incubated at room temperature for 5 minutes. Finally, 50 μl Tropix Reaction Buffer Diluent containing a 1:20 dilution of the CSPD Chemiluminescent Substrate was added. The plate was incubated at room temperature for 60 minutes and luminescence measured.

[2] = target: T2, mouse homolog of OSGPR116 (Mus musculus, UniProt Q7TQP3); assay: Yeast cell-based Fus1p-LacZ reporter assay, mouse OSGPR116; conditions: mouse isoform, FIG. 9b; Galpha-q5 yeast, 4h incubation
T2 construct: expressed in transfected cells; host or cells: engineered yeast (GPA1 and Ste3 deleted, G-alpha chimera, Fus1p-LacZ reporters)
T2 sequence (Q7TQP3 1-335): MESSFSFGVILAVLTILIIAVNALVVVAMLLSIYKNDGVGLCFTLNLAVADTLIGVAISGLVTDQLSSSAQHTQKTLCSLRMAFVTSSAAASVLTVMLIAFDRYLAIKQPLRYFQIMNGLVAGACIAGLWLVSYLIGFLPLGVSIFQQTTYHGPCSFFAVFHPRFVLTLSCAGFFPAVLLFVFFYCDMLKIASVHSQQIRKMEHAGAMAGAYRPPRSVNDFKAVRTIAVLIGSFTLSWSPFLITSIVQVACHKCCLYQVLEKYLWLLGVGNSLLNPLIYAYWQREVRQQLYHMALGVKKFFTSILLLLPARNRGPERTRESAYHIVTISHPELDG
From the text: (§1) The yeast cell-based reporter assays have previously been described in the literature (e.g. see Miret J. J., et. al. (2002) J. Biol. Chem. 277:6881–6887; Campbell R. M., et. al. (1999) Bioorg Med. Chem. Lett. 9:2413–2418; King K., et. al. (1990) Science. 250:121–123); WO 99/14344; WO 00/12704; and U.S. Pat. No. 6,100,042). Briefly, yeast cells have been engineered such that the endogenous yeast G-alpha (GPA1) has been deleted and replaced with G-protein chimeras constructed using multiple techniques. Additionally the endogenous yeast alpha-cell GPCR, Ste3 has been deleted to allow for a […] expression of a mammalian GPCR of choice. […] By placing β-galactosidase (LacZ) under the control of the Fus1 promoter (Fus1p), a system has been developed whereby receptor activation leads to an enzymatic read-out. […]
(§2) In order to perform fluorometric enzyme assays for β-galactosidase, yeast cells were grown overnight in liquid SD-LUT media to an unsaturated concentration (i.e. the cells are still dividing and have not yet reached stationary phase). […] The substrate may yield a fluorescent or calorimetric read-out upon the activity of the β-galactosidase. In these experiments, Fluorescein di (β-D-galactopyranoside) was used (FDG), a substrate for the enzyme that releases fluorescein, allowing a fluorometric read-out. […] The plates were then read in a fluorometer at 485/535 nm. […]

OSGPR116 [3] = target: T1, OSGPR116; assay: Yeast cell-based Fus1p-LacZ reporter assay, human OSGPR116; parameters: expressed in transfected cells; host or cells: engineered yeast (GPA1 and Ste3 deleted, G-alpha chimera, Fus1p-LacZ reporters); conditions: human isoform, FIG. 9a; Galpha-q5 yeast, 4h incubation
From the text: as §1, §2

Row | Structure (SMILES) | luminescence (cre-SEAP, cAMP response element driven secreted alkaline phosphatase) (OSGPR116 [1]) | effect on fluorescence (β-galactosidase activity) in yeast transformed with OSGPR116 receptor [2] | effect on fluorescence (β-galactosidase activity) in yeast transformed with OSGPR116 receptor (OSGPR116 [3])
1 | C=C[C@@]1(C)CC(=O)[C@]2(O)[C@@]3(C)[C@@H](O)CCC(C)(C)[C@@H]3[C@H](O)[C@H](OC(C)=O)[C@@]2(C)O1 [forskolin] | clear increase | – | –
2 | CCCCC/C=C\C/C=C\CCCCCCCC(=O)NCCO [linoleoyl ethanolamide] | – | increase in fluorescence | increase in fluorescence
